These are yes or no findings as the source states them, for the method shown. Tags and fused reporters may be left off the sequences shown.
Tests used:
[1] = molecular target: Acyl-ACP reductase (AAR) from Synechococcus elongatus PCC 7942, 6-His tagged recombinant (Synechococcus elongatus PCC 7942) (UniProt Q54765); assay: SEC; Superdex 200 Increase 10/300 GL; AAR 1.5 mg/mL; 50 mM Tris, 100 mM NaCl, 1 mM DTT, pH 7.4; with 2.25 M GdnHCl; both purified
[2] = molecular target: Acyl-ACP reductase (AAR) from Synechococcus elongatus PCC 7942, 6-His tagged recombinant (Synechococcus elongatus PCC 7942) (UniProt Q54765); assay: condition: only after de-lipidation on a MAYI-ODS column; native MS; intact mass by UHPLC (C8) coupled to ESI-MS; AAR de-lipidated beforehand on a Shimadzu MAYI-ODS column; both purified

- binding [2]: no binding
B1: Acyl-ACP reductase (AAR) from Synechococcus elongatus PCC 7942, 6-His tagged recombinant (enzyme)
chain: MFGLIGHLTSLEQARDVSRRMGYDEYADQGLEFWSSAPPQIVDEITVTSATGKVIHGRYIESCFLPEMLAARRFKTATRKVLNAMSHAQKHGIDISALGGFTSIIFENFDLASLRQVRDTTLEFERFTTGNTHTAYVICRQVEAAAKTLGIDITQATVAVVGATGDIGSAVCRWLDLKLGVGDLILTARNQERLDNLQAELGRGKILPLEAALPEADFIVWVASMPQGVVIDPATLKQPCVLIDGGYPKNLGSKVQGEGIYVLNGGVVEHCFDIDWQIMSAAEMARPERQMFACFAEAMLLEFEGWHTNFSWGRNQITIEKMEAIGEASVRHGFQPLALAI
notes: Acyl-ACP reductase (AAR), Synechococcus elongatus PCC 7942, codon-optimized aar gene in pQE30; domains described as NTD 1-130, mid-domain 131-264, CTD 265-341; also called Acyl-acyl carrier protein reductase; source: E. coli M15 (pQE30AAR), purified from the soluble fraction (Ni-NTA, gel filtration)
- binding [1]: no binding (condition: with 2.25 M GdnHCl)

From PMC8187606, “Biophysical and structural studies reveal marginal stability of a crucial hydrocarbon biosynthetic enzyme acyl ACP reductase” (Scientific Reports, 2021)
